# According to publication PMC11432330, “Novel Drug-like HsrA Inhibitors Exhibit Potent Narrow-Spectrum Antimicrobial Activities against Helicobacter pylori” (International Journal of Molecular Sciences, 2024):
# Further values from the same series stand in other lists.
# Tested on: H. pylori 26695
# Assay: In vivo inhibition of HsrA: RNA-Seq transcriptomic analysis of exposed cells
# Format: cell-based, Helicobacter pylori
# Description: Bacterial growth from three blood agar plates of H. pylori ATCC 700392 (aka 26695) incubated for 48 h at 37 °C under microaerobic conditions was aseptically resuspended in BHI + FBS and adjusted to 10^7 CFU/mL. BHI broth cultures were incubated microaerobically at 37 °C for 24 h. […] At this time, bacterial growth was stopped by adding 1.5 mL ice-cold RNA stop solution (95% absolute ethanol, 5% acid-buffered phenol) and subsequently incubated on ice. Control samples were exposed to the same amount of DMSO instead of the inhibitor. Helicobacter cells from all samples were harvested by centrifugation (4000 rpm at 4 °C for 10 min), then the pellets were quickly frozen by immersion in liquid nitrogen and stored at −80 °C.
# RNA-Seq analysis was performed by GENEWIZ (Azenta Life Sciences, Leipzig, Germany). Frozen cell pellets from two biological replicates of each treatment condition were properly submitted to GENEWIZ in dry ice. RNA-Seq libraries were prepared according to standard protocols via rRNA depletion, RNA fragmentation and random priming, reverse transcription, 5’-phosphorylation and dA-tailing of cDNAs, adaptor ligation, and PCR enrichment. Once the quality of each library was confirmed, they were sequenced on an Illumina NovaSeq 6000 (Illumina, San Diego, CA, USA) with 150-bp paired-ends. Raw sequence reads were filtered to remove possible adapter sequences and nucleotides with poor quality using Trimmomatic v.0.36 [105]. The trimmed reads were subsequently mapped to the H. pylori strain 26695 reference genome NC_000915.1 available on NCBI, by using the Bowtie2 aligner v.2.2.6 [106]. Unique gene hit counts were calculated by using featureCounts from the Subread package v.1.5.2. Only unique reads that fell within the gene regions were counted. Using DESeq2 [108], a comparison of the gene expression between the control and treated groups of samples was performed. The Wald test was used to generate p-values and log2 fold changes. Genes with an adjusted p-value < 0.05 and absolute log2 fold change >1 were considered as differentially expressed genes (DEGs) for each comparison. The RNA-Seq data generated in this study have been deposited in ArrayExpress with the accession number E-MTAB-14255.
smiles,measurement,setting,value
"NC(=NOC(=O)Nc1ccc(Cl)cc1)c1csc([N+](=O)[O-])c1 [Ligand V, N′-{[(4-chloroanilino)carbonyl]}oxy-5-nitrothiophene-3-carboximidamide]",log2 Fold Change,"gene maf, exposed to lethal concentrations vs control",1.639
same,log2 Fold Change,"gene metN, exposed to lethal concentrations vs control",0.020
same,log2 Fold Change,"gene miaA, exposed to lethal concentrations vs control",-0.634
same,log2 Fold Change,"gene minE, exposed to lethal concentrations of V vs control",0.969
same,log2 Fold Change,"gene moaA, exposed to lethal concentrations vs control",-0.107
same,log2 Fold Change,"gene mod, exposed to lethal concentrations vs control",0.088
same,log2 Fold Change,"gene mogA, exposed to lethal concentrations vs control",-0.063
same,log2 Fold Change,"gene murC, exposed to lethal concentrations vs control",-0.837
same,log2 Fold Change,"gene murE, exposed to lethal concentrations vs control",-0.055
same,log2 Fold Change,"gene ndk, exposed to lethal concentrations vs control",0.013
same,log2 Fold Change,"gene nhaA, exposed to lethal concentrations vs control",-0.086
same,log2 Fold Change,"gene nusG, exposed to lethal concentration of V vs control",-1.235
same,log2 Fold Change,"gene obgE, exposed to lethal concentrations of V vs control",0.741
same,log2 Fold Change,"gene omp16, exposed to lethal concentrations vs control",-0.043
same,log2 Fold Change,"gene omp17, exposed to lethal concentration of V vs control",-1.702
same,log2 Fold Change,"gene oorA, exposed to lethal concentrations vs control",0.119
same,log2 Fold Change,"gene oorB, exposed to lethal concentrations of V vs control",0.608
same,log2 Fold Change,"gene oorD, exposed to lethal concentration of V vs control",-1.607
same,log2 Fold Change,"gene pcm, exposed to lethal concentrations vs control",0.044
same,log2 Fold Change,"gene pdxA, exposed to lethal concentrations of V vs control",0.660
same,log2 Fold Change,"gene pgi, exposed to lethal concentrations vs control",1.423
same,log2 Fold Change,"gene pgk, exposed to lethal concentrations vs control",1.084
same,log2 Fold Change,"gene porC, exposed to lethal concentrations vs control",-0.109
same,log2 Fold Change,"gene prfA, exposed to lethal concentration of V vs control",-2.614
same,log2 Fold Change,"gene prmA, exposed to lethal concentration of V vs control",-1.071
same,log2 Fold Change,"gene pyrB, exposed to lethal concentrations of V vs control",0.732
same,log2 Fold Change,"gene pyrE, exposed to lethal concentrations vs control",-0.103
same,log2 Fold Change,"gene pyrG, exposed to lethal concentrations of V vs control",0.887
same,log2 Fold Change,"gene queA, exposed to lethal concentrations vs control",-0.686
same,log2 Fold Change,"gene recR, exposed to lethal concentrations vs control",-0.107
same,log2 Fold Change,"gene rho, exposed to lethal concentration of V vs control",-1.178
same,log2 Fold Change,"gene ribA, exposed to lethal concentrations vs control",-0.706
same,log2 Fold Change,"gene ribC, exposed to lethal concentrations vs control",0.034
same,log2 Fold Change,"gene ribH, exposed to lethal concentrations vs control",-0.107
same,log2 Fold Change,"gene rimM, exposed to lethal concentration of V vs control",-2.091
same,log2 Fold Change,"gene rnhB, exposed to lethal concentrations of V vs control",0.784
same,log2 Fold Change,"gene rplA, exposed to lethal concentrations vs control",-0.831
same,log2 Fold Change,"gene rplC, exposed to lethal concentration of V vs control",-1.139
same,log2 Fold Change,"gene rplI, exposed to lethal concentrations vs control",-0.646
same,log2 Fold Change,"gene rplJ, exposed to lethal concentration of V vs control",-1.559
same,log2 Fold Change,"gene rplK, exposed to lethal concentration of V vs control",-1.051
same,log2 Fold Change,"gene rplL, exposed to lethal concentration of V vs control",-0.909
same,log2 Fold Change,"gene rplM, exposed to lethal concentration of V vs control",-1.617
same,log2 Fold Change,"gene rplN, exposed to lethal concentration of V vs control",-1.008
same,log2 Fold Change,"gene rplO, exposed to lethal concentrations vs control",-0.775
same,log2 Fold Change,"gene rplR, exposed to lethal concentration of V vs control",-1.415
same,log2 Fold Change,"gene rplS, exposed to lethal concentration of V vs control",-1.647
same,log2 Fold Change,"gene rplT, exposed to lethal concentration of V vs control",-2.027
same,log2 Fold Change,"gene rplU, exposed to lethal concentration of V vs control",-3.119
same,log2 Fold Change,"gene rplV, exposed to lethal concentrations vs control",-0.771
same,log2 Fold Change,"gene rpmA, exposed to lethal concentration of V vs control",-2.557
same,log2 Fold Change,"gene rpmB, exposed to lethal concentration of V vs control",-1.954
same,log2 Fold Change,"gene rpmC, exposed to lethal concentration of V vs control",-1.167
same,log2 Fold Change,"gene rpmE, exposed to lethal concentration of V vs control",-1.306
same,log2 Fold Change,"gene rpmF, exposed to lethal concentration of V vs control",-2.178
same,log2 Fold Change,"gene rpmG, exposed to lethal concentration of V vs control",-0.924
same,log2 Fold Change,"gene rpmH, exposed to lethal concentration of V vs control",-1.882
same,log2 Fold Change,"gene rpmI, exposed to lethal concentration of V vs control",-2.800
same,log2 Fold Change,"gene rpmJ, exposed to lethal concentration of V vs control",-2.194
same,log2 Fold Change,"gene rpsA, exposed to lethal concentration of V vs control",-1.293
same,log2 Fold Change,"gene rpsE, exposed to lethal concentration of V vs control",-1.306
same,log2 Fold Change,"gene rpsF, exposed to lethal concentrations vs control",-0.701
same,log2 Fold Change,"gene rpsJ, exposed to lethal concentration of V vs control",-2.618
same,log2 Fold Change,"gene rpsL, exposed to lethal concentration of V vs control",-1.140
same,log2 Fold Change,"gene rpsM, exposed to lethal concentration of V vs control",-1.699
same,log2 Fold Change,"gene rpsN, exposed to lethal concentrations vs control",-0.046
same,log2 Fold Change,"gene rpsO, exposed to lethal concentration of V vs control",-2.030
same,log2 Fold Change,"gene rpsP, exposed to lethal concentration of V vs control",-1.591
same,log2 Fold Change,"gene rpsQ, exposed to lethal concentration of V vs control",-0.989
same,log2 Fold Change,"gene rpsR, exposed to lethal concentrations vs control",-0.800
same,log2 Fold Change,"gene rpsT, exposed to lethal concentration of V vs control",-1.339
same,log2 Fold Change,"gene rpsU, exposed to lethal concentration of V vs control",-1.225
same,log2 Fold Change,"gene ruvC, exposed to lethal concentrations of V vs control",0.985
same,log2 Fold Change,"gene secA, exposed to lethal concentrations of V vs control",0.724
same,log2 Fold Change,"gene secE, exposed to lethal concentration of V vs control",-1.643
same,log2 Fold Change,"gene secY, exposed to lethal concentrations vs control",-0.782
same,log2 Fold Change,"gene surE, exposed to lethal concentrations vs control",-0.634
same,log2 Fold Change,"gene tRNA-Ala-1, exposed to lethal concentrations vs control",1.893
same,log2 Fold Change,"gene tRNA-Ala-2, exposed to lethal concentrations vs control",1.157
same,log2 Fold Change,"gene tRNA-Arg-1, exposed to lethal concentrations vs control",1.443
same,log2 Fold Change,"gene tRNA-Arg-2, exposed to lethal concentrations of V vs control",0.810
same,log2 Fold Change,"gene tRNA-Arg-3, exposed to lethal concentrations vs control",1.517
same,log2 Fold Change,"gene tRNA-Asn-1, exposed to lethal concentrations vs control",1.418
same,log2 Fold Change,"gene tRNA-Asp-1, exposed to lethal concentrations vs control",1.454
same,log2 Fold Change,"gene tRNA-Cys-1, exposed to lethal concentrations vs control",0.112
same,log2 Fold Change,"gene tRNA-Glu-1, exposed to lethal concentrations vs control",1.436
same,log2 Fold Change,"gene tRNA-Gly-1, exposed to lethal concentrations of V vs control",0.945
same,log2 Fold Change,"gene tRNA-Gly-2, exposed to lethal concentrations vs control",1.265
same,log2 Fold Change,"gene tRNA-His-1, exposed to lethal concentrations vs control",1.083
same,log2 Fold Change,"gene tRNA-Ile-1, exposed to lethal concentrations vs control",-0.803
same,log2 Fold Change,"gene tRNA-Leu-2, exposed to lethal concentrations vs control",1.821
same,log2 Fold Change,"gene tRNA-Leu-3, exposed to lethal concentrations vs control",1.654
same,log2 Fold Change,"gene tRNA-Met-1, exposed to lethal concentrations vs control",2.141
same,log2 Fold Change,"gene tRNA-Met-2, exposed to lethal concentrations vs control",1.113
same,log2 Fold Change,"gene tRNA-Met-3, exposed to lethal concentrations vs control",1.875
same,log2 Fold Change,"gene tRNA-Phe-1, exposed to lethal concentrations of V vs control",0.884
same,log2 Fold Change,"gene tRNA-Pro-1, exposed to lethal concentrations vs control",1.415
same,log2 Fold Change,"gene tRNA-Pro-2, exposed to lethal concentrations vs control",-0.113
same,log2 Fold Change,"gene tRNA-Thr-2, exposed to lethal concentrations of V vs control",0.891
same,log2 Fold Change,"gene tRNA-Tyr-1, exposed to lethal concentrations of V vs control",0.552
same,log2 Fold Change,"gene tRNA-Val-2, exposed to lethal concentrations vs control",-0.623
same,log2 Fold Change,"gene thiE, exposed to lethal concentrations of V vs control",0.732
same,log2 Fold Change,"gene thrS, exposed to lethal concentrations vs control",-0.703
same,log2 Fold Change,"gene thyX, exposed to lethal concentration of V vs control",-0.995
same,log2 Fold Change,"gene tig, exposed to lethal concentration of V vs control",-1.315
same,log2 Fold Change,"gene tolB, exposed to lethal concentration of V vs control",-0.933
same,log2 Fold Change,"gene tpiA, exposed to lethal concentrations vs control",-0.707
same,log2 Fold Change,"gene trmB, exposed to lethal concentrations vs control",-0.047
same,log2 Fold Change,"gene trmD, exposed to lethal concentration of V vs control",-1.325
same,log2 Fold Change,"gene trmE, exposed to lethal concentration of V vs control",-1.188
same,log2 Fold Change,"gene trpA, exposed to lethal concentrations vs control",-0.690
same,log2 Fold Change,"gene trpC, exposed to lethal concentrations of V vs control",0.568
same,log2 Fold Change,"gene truA, exposed to lethal concentrations vs control",-0.677
same,log2 Fold Change,"gene tuf, exposed to lethal concentrations of V vs control",0.500
same,log2 Fold Change,"gene ubiE, exposed to lethal concentrations vs control",-0.139
same,log2 Fold Change,"gene ureB, exposed to lethal concentrations of V vs control",0.950
same,log2 Fold Change,"gene ureE, exposed to lethal concentrations vs control",-0.706
same,log2 Fold Change,"gene uvrC, exposed to lethal concentrations vs control",-0.752
same,log2 Fold Change,"gene valS, exposed to lethal concentrations of V vs control",0.999
same,log2 Fold Change,"gene ychF, exposed to lethal concentrations vs control",1.854
